{
  "source": "patent US7250401B2",
  "about": "“Therapeutic compositions” (Advanced Therapeutics and Diagnostics, LC, priority 2001, dated 2007)",
  "assay": "Reaction with thionitrobenzoate (detection of thiol-reactive substances, loss of absorbance at 412 nm)",
  "assay_type": "physicochemical",
  "details": "aqueous solution at pH 7 and 25° C.",
  "experimental": "A stock solution of 5-thio-2-nitrobenzoate (hereafter referred to as thionitrobenzoate) was prepared by reduction of 5,5′-dithiobis(2-nitrobenzoic acid) (hereafter referred to as DTNB, Aldrich Chemical Company). This stock solution was prepared by mixing 0.1 ml of 0.1 M DTNB dissolved in ethanol (396 mg of DTNB in 10 ml of ethanol), 0.1 ml of 1 M aqueous potassium phosphate buffer (prepared by mixing equal volumes of 1 M monobasic potassium phosphate with 1 M dibasic potassium phosphate), and 0.025 ml of 1 M sodium borohydride dissolved in 1 M NaOH on ice. After incubating this mixture for 10 minutes at ice temperature, 0.1 mL of 1 M monobasic potassium phosphate was added and the resultant solution was diluted to a final volume of 2 ml by addition of 1.675 ml of water. […]\nIf 0.01 ml of the 10 mM stock of thionitrobenzoate, obtained by sodium borohydride reduction of DTNB, was diluted with 0.89 ml of water and 0.1 ml of 1 M phosphate buffer, it gave an absorbance at 412 nm of 1.36 in a 1 cm pathlength cuvette. If 0.01 ml of the 8.7 mM stock of thionitrobenzoate obtained by 2-mercaptoethanol reduction of DTNB was diluted with 0.89 ml of water and 0.1 ml of 1 M phosphate buffer, it gave an absorbance at 412 nm of 1.18 in a 1 cm pathlength cuvette. […]",
  "note": "Some entries share one result that the patent states for a list of compounds. For at least one compound, name, drawing or mass did not settle the structure.",
  "data": [
    {"smiles": "CCN(CC)C(=O)[S+](C)[O-]", "note": "(stereo not drawn) [DETC-MeSO, S-Methyl-N,N-Diethylthiolcarbamate Sulfoxide]", "values": [
      {"measurement": "rate of reaction with thionitrobenzoate", "result": "< 0.05", "unit": "M⁻¹ s⁻¹"}
    ]},
    {"smiles": "CCN(CC)C(=O)SC[C@H](NC(=O)CC[C@H](N)C(=O)O)C(=O)NCC(=O)O", "note": "[carbamathione, S-(N,N-Diethylcarbamoyl)Glutathione]", "values": [
      {"measurement": "rate of reaction with thionitrobenzoate", "result": "< 0.05", "unit": "M⁻¹ s⁻¹"}
    ]}
  ]
}
